# Assay results as given in the supplement of paper PMC3334620.
# Whole data set: some 33,000 sequences, median “E-score (-0.5 to 0.5)” near -8e-05, cut for the highest 2% near 0.23. Some of the results follow.
# Molecular target: T1, Nrg2 (UniProt P38082)
# T1 sequence: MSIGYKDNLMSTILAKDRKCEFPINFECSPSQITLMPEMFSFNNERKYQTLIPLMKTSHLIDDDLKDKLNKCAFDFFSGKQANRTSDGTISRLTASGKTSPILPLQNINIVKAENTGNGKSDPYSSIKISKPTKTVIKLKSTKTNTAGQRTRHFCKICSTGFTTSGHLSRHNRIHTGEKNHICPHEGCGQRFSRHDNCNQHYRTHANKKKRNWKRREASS
# Test: PBM E-score (8-mer binding enrichment) (E-score (-0.5 to 0.5)); higher = stronger / more preferred TF binding
# Details: protein concentration: 100 nM; construct: GST-full length
# How it was run: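 Using PURExpress in vitro transcription/translation, GST-tagged yeast transcription factors were made in full-length or DNA-binding-domain form. These were applied at about 100-200 nM to double-stranded universal all-10-mer Agilent arrays, and bound protein was detected with fluorescent anti-GST. Scans were normalised with masliner before the Universal PBM Analysis Suite assigned E-scores to ungapped eight-base words pooled with their reverse complements.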
row,Sequence,PBM E-score
1,ACGGAATC,0.0288
2,TCGAGAGA,-0.0129
3,GCACGACA,-0.0487
4,CGGATACA,0.00321
5,AATTGACG,-0.0643
6,CCTTAACC,-0.104
7,CCAGAGCA,0.113
8,CATGGCCA,-0.042
9,GATTAGGC,0.0901
10,ACGATTAC,-0.0875
11,CAGTACCA,-0.0964
12,AGATCCTG,-0.0865
13,CAGTGGAA,-0.0633
14,GTTACGCA,0.00206
15,CCGCATCA,-0.0093
16,ATGACACA,0.147
17,AATTGATA,0.193
18,CTTCCTCA,0.0492
19,CCCCTCTC,-0.259
20,ATGATCGC,-0.0116
21,AGCGGGAA,0.117
22,GATACCGC,0.126
23,ATCATGTA,0.0207
24,ATTCGTAA,0.0546
25,CGAGACCA,0.0493

row,Sequence,PBM E-score
1,CGTCACAA,0.0516
2,CAGTTAGA,-0.102
3,AAGAACTC,0.0776
4,GCCTGAGA,-0.0991
5,GCAAGCAC,-0.269
6,TATACACA,0.128
7,ATGTCATG,0.0722
8,ATTCTATA,0.0728
9,TCCTATCA,-0.053
10,ATACGCTG,0.043
11,GGACGAGA,0.0326
12,CTAAGGTC,-0.0369
13,CATGGGCG,-0.0413
14,CTACAAGC,0.0607
15,ACAAAATG,-0.0223
16,CTCGTTCC,0.135
17,GGTAGCGA,-0.0206
18,CTCGCATA,0.034
19,ACTAGTCA,-0.0955
20,AAGGGTTG,0.167
21,AAGTTACC,0.145
22,CCGGCCCA,-0.303
23,CTACGAAC,0.0458
24,CCCGATAC,-0.0132
25,GTGCCAAA,-0.0122

# Reformatted: results already given
row | Sequence | PBM E-score
10 | ACGATTAC | -0.0875
11 | CAGTACCA | -0.0964
12 | AGATCCTG | -0.0865
13 | CAGTGGAA | -0.0633
14 | GTTACGCA | 0.00206
15 | CCGCATCA | -0.0093
16 | ATGACACA | 0.147
17 | AATTGATA | 0.193
18 | CTTCCTCA | 0.0492
19 | CCCCTCTC | -0.259
20 | ATGATCGC | -0.0116
21 | AGCGGGAA | 0.117
22 | GATACCGC | 0.126
23 | ATCATGTA | 0.0207
24 | ATTCGTAA | 0.0546
25 | CGAGACCA | 0.0493
1 | CGTCACAA | 0.0516
2 | CAGTTAGA | -0.102
3 | AAGAACTC | 0.0776
4 | GCCTGAGA | -0.0991
5 | GCAAGCAC | -0.269
6 | TATACACA | 0.128
7 | ATGTCATG | 0.0722
8 | ATTCTATA | 0.0728
9 | TCCTATCA | -0.053
10 | ATACGCTG | 0.043
11 | GGACGAGA | 0.0326
12 | CTAAGGTC | -0.0369
13 | CATGGGCG | -0.0413
14 | CTACAAGC | 0.0607
15 | ACAAAATG | -0.0223

# Continued:

row,Sequence,PBM E-score
1,AAATATCA,0.103
2,ATACAGAT,0.157
3,TCTGAACA,0.0152
4,CTATTAGA,-0.0491
5,ATGGTCTA,-0.0555
6,CCAATAGG,-0.102
7,GAAACGTC,-0.109
8,AGAGTGAT,0.161
9,GTTAATTA,0.204
10,CTTTAACA,-0.118
11,ATGTCAGC,0.0531
12,ACGGTTCT,-0.137
13,AGCCGGGA,-0.132
14,CTACTTTC,0.116
15,ATGTTCTC,-0.0462
16,AACGGACG,-0.0834
17,CGCGGCGA,0.131
18,CTTTGTGC,-0.00409
19,TCCACTCA,0.0334
20,ATCGAGTA,0.0604
21,AGTTATGA,0.0207
22,CCGCATTA,-0.0232
23,ATACCCTC,0.0223
24,AAAATAAA,0.0957
25,GTTGAGGA,-0.104

row,Sequence,PBM E-score
1,GTGTGCGA,-0.00287
2,CGGTCGAC,-0.0395
3,CGGTTGTA,-0.147
4,TGATGCCA,0.035
5,ATTCAAAA,0.201
6,CGGCGAAC,-0.0868
7,ACGAACTA,0.0901
8,CTCTTCAA,-0.256
9,AAACTGAC,-0.00747
10,GATTTTCC,-0.0202
11,ACTAATAG,0.135
12,GTACTGTA,-0.101
13,ATGGCGAC,-0.078
14,TCGGTCCA,-0.0618
15,AGCGAAGA,-0.106
16,AAGCTCCG,0.00761
17,CCCGTTAC,0.00497
18,TCGTCAAA,0.121
19,AAACACAG,0.147
20,CTACGGTA,-0.0723
21,CGGGGTGC,0.0228
22,GAAGAAGA,-0.0608
23,CTGCTGTA,-0.0474
24,GAGATGTA,0.0863
25,CCTGCTTA,0.0296

row,Sequence,PBM E-score
1,AAACTGCT,-0.114
2,AACTGCCT,0.0785
3,CTTGTTAA,0.0818
4,CGTACGAA,0.00904
5,ATCCCCTC,0.0203
6,AAACTGTC,-0.0754
7,ATAATGTC,0.121
8,AGTACAGG,0.186
9,GCGAAAGC,-0.0231
10,AAAGAAGG,-0.135
11,AGCATTTG,0.0316
12,CGGCTGGC,-0.107
13,CCGTAACA,-0.112
14,ACACGACG,0.0478
15,ATTTGTCA,-0.00577
16,ATGTAAGA,0.137
17,ATGCACAT,0.0459
18,ACTTCCAA,-0.0119
19,CCGGGGAG,-0.197
20,ACCAGGGA,0.122
21,AACTATGT,-0.00714
22,ACTAGAAT,0.0815
23,AATCAAGT,0.0614
24,ACGCGCAA,0.142
25,CAAACCGC,0.0887

row,Sequence,PBM E-score
1,GCAGTCAC,-0.195
2,ACCACCTG,0.0551
3,GTGACTCA,-0.0464
4,ACAGATTG,0.082
5,GATAAAGA,0.0732
6,AATTGTTG,-0.14
7,CACTCATA,0.035
8,CGATGCCA,-0.159
9,AAGGGCTC,-0.192
10,ACTTCAAA,-0.0398
11,ACCCTTCG,0.0838
12,CAAAGTAA,0.0919
13,AATTTGGA,-0.143
14,ACCAATGC,0.142
15,AGAATTGG,0.0829
16,CCGGAAAA,0.0381
17,CGATATAA,0.244
18,CCATCCGG,-0.12
19,CTACACAG,-0.016
20,GTAGGCAC,-0.155
21,CAAGTCGG,0.0707
22,AACGATTC,0.0537
23,ACTTTCGG,-0.108
24,CCGGATAG,0.0119
25,ACCAAAAG,-0.042

row,Sequence,PBM E-score
1,GGGGCATA,0.031
2,AATGCAGC,-0.106
3,CGCGGTAC,0.0374
4,TACATCCA,0.017
5,TCATAAGA,-0.184
6,ACCGAGTG,-0.0524
7,TAATTTCA,0.194
8,CCTGGGCC,-0.0335
9,AGGCTGCG,0.0178
10,CCAGTAAA,0.0921
11,GACTCTAA,0.0462
12,TCATCCCA,-0.175
13,AGTATTCA,0.0817
14,GTGGAAGA,-0.159
15,CGACCGGA,-0.12
16,ACCGGCGG,-0.11
17,CCTTTAAG,-0.0435
18,TATTGAGA,0.0404
19,GTAAGTCA,-0.0106
20,ACTGGCGG,-0.101
21,CTAGGTGC,-0.111
22,CGGCCGAC,0.175
